Article PMC9607959
Results are given in words; binding and its absence hold for the method and conditions named.

Sequences of proteins named here, by UniProt entry; tags and fusion partners are left off. A change or cut given only in a name is not applied to a line headed by its entry. Residues count along the entry.
UniProt P68874, residues 552-731: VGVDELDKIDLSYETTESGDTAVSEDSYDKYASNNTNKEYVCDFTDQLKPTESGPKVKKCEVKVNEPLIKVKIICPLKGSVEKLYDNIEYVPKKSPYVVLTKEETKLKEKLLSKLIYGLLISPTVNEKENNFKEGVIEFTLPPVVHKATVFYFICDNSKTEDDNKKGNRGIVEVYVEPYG

Biological target: engineering lot of Pfs230D1+ protein (Plasmodium falciparum 3D7) (UniProt P68874)
Assay: SEC; Size Exclusion Chromatography HPLC (SEC-HPLC) of the purified engineering lot; percent of monomer; methods as in ref. 17; both purified

With “engineering lot of Pfs230D1+ protein (from UniProt P68874 552-731) (domain or fragment)” the binding was “no binding”.
